Measurements taken from patent US12343363B2, “Lactic acid bacterial composition for the treatment of bacterial vaginal infections by Gardnerella vaginalis and, if present, of concurrent fungal infections” (PROBIOTICAL S.P.A., priority 2016, dated 2025).

Test system: Candida albicans ATCC 10231
Assay: Fluconazole MIC by E-test
Type: cell-based
Conditions: ATCC10231, E_test, range 0.016-256 μg/ml, read-out: MIC (minimum inhibitory concentration)
Excerpt: The strains of Candida being used in the present study were purchased from the American Type Culture Collection (ATCC). Specifically, the following biotypes were used: C. albicans ATCC 10231, C. parapsilosis ATCC 22019, C. krusei ATCC 6258, C. glabrata ATCC 2001 and C. tropicalis ATCC 750 (14). The strains of lactobacilli of this study, all isolated from vaginal swabs of healthy female subjects or directly brushing the intestinal mucosa of healthy humans, were classified based on their phenotypic and genotypic characteristics: L. fermentum LF5 (DSM 32277), L. fermentum LF09 (DSM 18298), L. fermentum LF10 (DSM 19187) and L. fermentum LF11 (DSM 19188).
Evaluation of the fungicidal activity. The minimum inhibitory concentration (MIC) for fluconazole was determined by E-test (bioMerieux Italy, Florence) with MHE agar. The plates were incubated under aerobic conditions at 30° C. and read after 24 hours. Furthermore, since there is no specific E-test for miconazole, the MIC was determined by using the broth macrodilution method. We assessed the activity of serially diluted fluconazole and miconazole (Sigma-Aldrich, Missouri, USA) (from […] to […]) against the Candida strains. […]

- MIC: > 256 µg/mL
SMILES: OC(Cn1cncn1)(Cn1cncn1)c1ccc(F)cc1F [fluconazole]
